Some of these results come from one statement about several compounds together.
Tested on: hemoglobin-haptoglobin complex
Assay: Stability of hemoglobin (as hemoglobin-haptoglobin complex) in samples preserved at 37° C. in preservation solution containing 1 unit/L haptoglobin, Hb measured by latex agglutination method (Examples 1 to 7)
Parameters: species or system human
Conditions: with phenylboronic acid 15 mmol/L; Feces 1, Feces 2, Feces 3
Description: Preservation solutions were prepared with the addition of 40 mmol/L HEPES (pH 6.8), 0.1% BSA, 0.1% NaN3, 1 unit/L haptoglobin, and 0 to 100 mmol/L phenylboronic acid. Samples obtained by adding hemoglobin-added fecal specimens to the preservation solutions so that the fecal concentration would be 0.5% were preserved at 37° C. for 0, 7, 14, and 21 days. […] The hemoglobin (Hb) concentrations (μg/L) in the preserved samples were measured by the latex agglutination method.
The concentrations of hemoglobin were measured using “OC-Hemodia (registered trademark) Auto III ‘EIKEN’” (available from EIKEN CHEMICAL CO., LTD.) as a measurement reagent and “OC-sensor DIANA” (available from EIKEN CHEMICAL CO., LTD.) as a measurement device. […]
From the measured concentrations of hemoglobin, the recovery ratios (%) were calculated with respect to the hemoglobin concentrations immediately after the fecal specimens were added to the preservation solutions (i.e., concentrations 0 days after the fecal specimens were added). […]

Compound	added sugar concentration at which the recovery ratio became constant
OC[C@@H](O)[C@@H](O)[C@H](O)[C@@H](O)CO [Sorbitol, sorbitol]	≥ 25 mmol/L
OC[C@H]1O[C@@](CO)(O[C@H]2O[C@H](CO)[C@@H](O)[C@H](O)[C@H]2O)[C@@H](O)[C@@H]1O [Sucrose, sucrose]	≥ 25 mmol/L
